# Assay results from the supplement of paper PMC8728848.
# Some of the results follow.
# Key:
# Test in all cases: glycan array binding signal (z-score within array); higher = stronger binding
# Conditions in all cases: glycan notation: IUPAC condensed, linker removed
# [1] = target: Neu5Ac(a2-6)Gal(b1-4)GlcNAc(b1-2)Man(a1-3)[Neu5Ac(a2-3)Gal(b1-4)GlcNAc(b1-2)Man(a1-6)]Man(b1-4)GlcNAc(b1-4)GlcNAc
# Summary of the method: (§1)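 The binding signal is a Z-score computed within each array. Data were drawn from 3228 arrays in the Consortium for Functional Glycomics database, restricted to those with a known protein sequence. Scores were averaged over arrays of the same protein sequence at different concentrations or buffers, and over linkers, and negative values can be taken as non-binding.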
# [2] = target: Neu5Ac(a2-6)Gal(b1-4)GlcNAc(b1-2)Man(a1-3)[Neu5Ac(a2-6)Gal(b1-4)GlcNAc(b1-2)Man(a1-6)]Man(b1-4)GlcNAc(b1-4)GlcNAc
# Summary of the method: as §1
# [3] = target: Neu5Ac(a2-6)Gal(b1-4)GlcNAc(b1-2)Man(a1-3)[Neu5Ac(a2-6)Gal(b1-4)GlcNAc(b1-2)Man(a1-6)]Man(b1-4)GlcNAc(b1-4)[Fuc(a1-6)]GlcNAc
# Summary of the method: as §1
# [4] = target: Neu5Ac(a2-6)Gal(b1-4)GlcNAc(b1-2)Man(a1-6)Man(b1-4)GlcNAc(b1-4)GlcNAc
# Summary of the method: as §1
# [5] = target: Neu5Ac(a2-6)Gal(b1-4)GlcNAc(b1-2)Man(a1-6)[Gal(b1-4)GlcNAc(b1-2)Man(a1-3)]Man(b1-4)GlcNAc(b1-4)GlcNAc
# Summary of the method: as §1
# [6] = target: Neu5Ac(a2-6)Gal(b1-4)GlcNAc(b1-2)Man(a1-6)[GlcNAc(b1-2)Man(a1-3)]Man(b1-4)GlcNAc(b1-4)GlcNAc
# Summary of the method: as §1
# [7] = target: Neu5Ac(a2-6)Gal(b1-4)GlcNAc(b1-2)Man(a1-6)[Man(a1-3)]Man(b1-4)GlcNAc(b1-4)GlcNAc
# Summary of the method: as §1
# [8] = target: Neu5Ac(a2-6)Gal(b1-4)GlcNAc(b1-2)[Neu5Ac(a2-6)Gal(b1-4)GlcNAc(b1-4)]Man(a1-3)[GlcNAc(b1-4)][Neu5Ac(a2-6)Gal(b1-4)GlcNAc(b1-2)[Neu5Ac(a2-6)Gal(b1-4)GlcNAc(b1-6)]Man(a1-6)]Man(b1-4)GlcNAc(b1-4)GlcNAc
# Summary of the method: as §1
# [9] = target: Neu5Ac(a2-6)Gal(b1-4)GlcNAc(b1-2)[Neu5Ac(a2-6)Gal(b1-4)GlcNAc(b1-4)]Man(a1-3)[GlcNAc(b1-4)][Neu5Ac(a2-6)Gal(b1-4)GlcNAc(b1-4)Man(a1-6)]Man(b1-4)GlcNAc(b1-4)GlcNAc
# Summary of the method: as §1
# [10] = target: Neu5Ac(a2-6)Gal(b1-4)GlcNAc(b1-2)[Neu5Ac(a2-6)Gal(b1-4)GlcNAc(b1-6)]Man(a1-6)[Neu5Ac(a2-6)Gal(b1-4)GlcNAc(b1-2)Man(a1-3)][GlcNAc(b1-4)]Man(b1-4)GlcNAc(b1-4)GlcNAc
# Summary of the method: as §1
# [11] = target: Neu5Ac(a2-6)Gal(b1-4)GlcNAc(b1-3)Gal(b1-3)GlcNAc
# Summary of the method: as §1
# [12] = target: Neu5Ac(a2-6)Gal(b1-4)GlcNAc(b1-3)Gal(b1-4)GlcNAc
# Summary of the method: as §1
# [13] = target: Neu5Ac(a2-6)Gal(b1-4)GlcNAc(b1-3)Gal(b1-4)GlcNAc(b1-2)Man(a1-3)[Neu5Ac(a2-6)Gal(b1-4)GlcNAc(b1-3)Gal(b1-4)GlcNAc(b1-2)Man(a1-6)]GalNAc
# Summary of the method: as §1
# [14] = target: Neu5Ac(a2-6)Gal(b1-4)GlcNAc(b1-3)Gal(b1-4)GlcNAc(b1-3)Gal(b1-4)GlcNAc
# Summary of the method: as §1
# [15] = target: Neu5Ac(a2-6)Gal(b1-4)GlcNAc(b1-3)Gal(b1-4)GlcNAc(b1-3)Gal(b1-4)GlcNAc(b1-2)Man(a1-3)[Neu5Ac(a2-6)Gal(b1-4)GlcNAc(b1-3)Gal(b1-4)GlcNAc(b1-3)Gal(b1-4)GlcNAc(b1-2)Man(a1-6)]GalNAc
# Summary of the method: as §1
# [16] = target: Neu5Ac(a2-6)Gal(b1-4)GlcNAc(b1-3)Gal(b1-4)GlcNAc(b1-3)GalNAc
# Summary of the method: as §1
# [17] = target: Neu5Ac(a2-6)Gal(b1-4)GlcNAc(b1-3)Gal(b1-4)GlcNAc(b1-3)[Neu5Ac(a2-6)Gal(b1-4)GlcNAc(b1-3)Gal(b1-4)GlcNAc(b1-6)]GalNAc
# Summary of the method: as §1
# [18] = target: Neu5Ac(a2-6)Gal(b1-4)GlcNAc(b1-3)Gal(b1-4)GlcNAc(b1-6)[Gal(b1-3)]GalNAc
# Summary of the method: as §1
# [19] = target: Neu5Ac(a2-6)Gal(b1-4)GlcNAc(b1-3)Gal(b1-4)[Fuc(a1-3)]GlcNAc(b1-3)Gal(b1-4)[Fuc(a1-3)]GlcNAc
# Summary of the method: as §1
# [20] = target: Neu5Ac(a2-6)Gal(b1-4)GlcNAc(b1-3)GalNAc
# Summary of the method: as §1
# [21] = target: Neu5Ac(a2-6)Gal(b1-4)GlcNAc(b1-3)[Neu5Ac(a2-6)Gal(b1-4)GlcNAc(b1-6)]GalNAc
# Summary of the method: as §1
# [22] = target: Neu5Ac(a2-6)Gal(b1-4)GlcNAc(b1-6)GalNAc
# Summary of the method: as §1
# [23] = target: Neu5Ac(a2-6)Gal(b1-4)GlcNAc(b1-6)[Gal(b1-3)GlcNAc(b1-3)]Gal(b1-4)Glc
# Summary of the method: as §1
# [24] = target: Neu5Ac(a2-6)Gal(b1-4)GlcNAc(b1-6)[Gal(b1-3)]GalNAc
# Summary of the method: as §1
# [25] = target: Neu5Ac(a2-6)Gal(b1-4)GlcNAc6S
# Summary of the method: as §1
# [26] = target: Neu5Ac(a2-6)GalNAc
# Summary of the method: as §1
# [27] = target: Neu5Ac(a2-6)GalNAc(b1-4)GlcNAc
# Summary of the method: as §1
# [28] = target: Neu5Ac(a2-6)GalNAc(b1-4)GlcNAc6S
# Summary of the method: as §1
# [29] = target: Neu5Ac(a2-6)GlcNAc(b1-4)GlcNAc
# Summary of the method: as §1
# [30] = target: Neu5Ac(a2-6)GlcNAc(b1-4)GlcNAc(b1-4)GlcNAc
# Summary of the method: as §1
binder,measurement,setting,value
Mermaid2 (Stilbonema majum) (protein) MGSSHHHHHHSSGLVPRGSHMAASGWLRSPQGTVVKLYRRSLSWSKADEFCKDVDGRLVVDRTADMHLFLIKNVLKEKKSRVWVGLRRTAPHSRTWIWSDGTRQNEDDLNTNLWLRDEPNDAAGEEECALFMYSPWEKAWGLNDYLCRGGCRSYQFICEKGIR,glycan array binding signal (z-score),[1],-0.109
same,glycan array binding signal (z-score),[2],-0.187
same,glycan array binding signal (z-score),[3],-0.781
same,glycan array binding signal (z-score),[4],-0.552
same,glycan array binding signal (z-score),[5],-0.551
same,glycan array binding signal (z-score),[6],-0.362
same,glycan array binding signal (z-score),[7],-0.021
same,glycan array binding signal (z-score),[8],-0.564
same,glycan array binding signal (z-score),[9],-0.706
same,glycan array binding signal (z-score),[10],-0.79
same,glycan array binding signal (z-score),[11],0.521
same,glycan array binding signal (z-score),[12],-0.49
same,glycan array binding signal (z-score),[13],-0.522
same,glycan array binding signal (z-score),[14],-0.484
same,glycan array binding signal (z-score),[15],0.952
same,glycan array binding signal (z-score),[16],-0.709
same,glycan array binding signal (z-score),[17],-0.133
same,glycan array binding signal (z-score),[18],-0.808
same,glycan array binding signal (z-score),[19],-0.092
same,glycan array binding signal (z-score),[20],-0.032
same,glycan array binding signal (z-score),[21],-0.642
same,glycan array binding signal (z-score),[22],-0.218
same,glycan array binding signal (z-score),[23],-0.2
same,glycan array binding signal (z-score),[24],-0.781
same,glycan array binding signal (z-score),[25],-0.632
same,glycan array binding signal (z-score),[26],-0.728
same,glycan array binding signal (z-score),[27],-0.781
same,glycan array binding signal (z-score),[28],-0.212
same,glycan array binding signal (z-score),[29],-0.763
same,glycan array binding signal (z-score),[30],0.021

# Looked up one by one from above:
binder,measurement,setting,value
Mermaid2 (Stilbonema majum) (protein) MGSSHHHHHHSSGLVPRGSHMAASGWLRSPQGTVVKLYRRSLSWSKADEFCKDVDGRLVVDRTADMHLFLIKNVLKEKKSRVWVGLRRTAPHSRTWIWSDGTRQNEDDLNTNLWLRDEPNDAAGEEECALFMYSPWEKAWGLNDYLCRGGCRSYQFICEKGIR,glycan array binding signal (z-score),[28],-0.212
same,glycan array binding signal (z-score),[22],-0.218
